# Source: PubChem BioAssay AID1487 (National Center for Advancing Translational Sciences (NCATS), 2009)
# This is one part of the list. The main result of the screen is listed elsewhere. These columns were measured beside it and carry no call. Compounds called inactive in the main read-out are mostly missing here. Words in brackets tell the shape of the fitted curve; partial curves, single points and poor fits give uncertain potencies.
# Assay: qHTS Assay for Modulators of Lamin A Splicing
# Conditions: HeLa LMNA splicing GFP/RFP minigene ratio, 48 h
# In short: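 S3 HeLa stable clones carrying a lamin A-EGFP splicing minigene plus DsRed2 were seeded at 600 cells/well in Opti-MEM with 2% FBS, pin-dosed and incubated 48 h at 37°C. Acumen cytometry (488 nm) gave the GFP/RFP total-intensity ratio.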
# [1] = measured here: GFP splicing reporter channel
# [2] = measured here: RFP viability control channel
SMILES,AC50 [1],AC50 [2]
CS(=O)(=O)c1cnc2c(-c3ccsc3)cnn2c1N,"25.1 µM [rising, single point]",–
COc1ccc(OC)c(/C=N/NC(=O)CC(=O)NCc2ccccc2)c1,"31.6 µM [falling, partial curve, poor fit]","35.5 µM [falling, single point]"
CCN(CC)C(=O)c1sc(NC(=O)c2c(OC)cccc2OC)c(C#N)c1C,"0.00891 µM [rising, full curve, poor fit]",–
CCCSc1nc2ccsc2c(=O)n1CC,"3.16 µM [rising, partial curve, poor fit]",–
CC(=O)Nc1nnc(CCS(=O)(=O)c2ccc(Cl)cc2)s1,"10 µM [falling, partial curve]",–
COc1ccc(Cn2ccn(Cc3cccc(OC)c3)c(=O)c2=O)cc1,–,"17.8 µM [rising, single point]"
c1ccc(Nc2nn[nH]n2)cc1,–,"0.0355 µM [rising, full curve, poor fit]"
COc1cc2ccccc2cc1C(=O)Nc1ccc(Cc2ccncc2)cc1,–,"4.47 µM [rising, full curve, poor fit]"
CCN1c2ccccc2-c2nc3ccccc3n2C1c1cccs1 (centres undefined),–,"11.2 µM [rising, single point]"
NC(=O)c1cc2cc(Cc3ccccc3Cl)ccc2oc1=O,–,"0.02 µM [falling, full curve]"
CN(C)c1ccc(N2CN=C3SCC(=O)N3C2)cc1,"12.6 µM [falling, single point]","11.2 µM [falling, partial curve]"
COc1ccc(CN(C(=O)CSc2nnc(-c3ccc(OC)c(OC)c3)o2)c2ccc(F)cc2)cc1,–,"35.5 µM [rising, single point]"
COc1cc2nc(NC(=O)c3ccc(S(=O)(=O)N4CCOCC4)cc3)sc2cc1OC,"0.562 µM [rising, full curve, poor fit]",–
N[C@@H](CSCCCO)C(=O)O,"0.0631 µM [falling, single point]",–
N#Cc1ccc(/C=C/C(=O)c2ccccc2)cc1,–,"31.6 µM [falling, single point]"
CCOC(=O)c1cccc(NC(=O)CCn2c(-c3ccc(F)cc3)cc(C(=O)OCC)c2C)c1,"2.24 µM [falling, partial curve]","7.08 µM [falling, partial curve, poor fit]"
COC(=O)c1ccccc1NC(=O)CN(CCc1ccccc1)S(C)(=O)=O,"0.398 µM [rising, full curve, poor fit]","4.47 µM [rising, full curve, poor fit]"
COc1cccc(/C=N/NC(=O)Cn2nc(C)c([N+](=O)[O-])c2C)c1O,–,"11.2 µM [rising, partial curve]"

# Pulled one by one from the list above (two):
SMILES,AC50 [1],AC50 [2]
CCCSc1nc2ccsc2c(=O)n1CC,"3.16 µM [rising, partial curve, poor fit]",–
COc1ccc(OC)c(/C=N/NC(=O)CC(=O)NCc2ccccc2)c1,"31.6 µM [falling, partial curve, poor fit]","35.5 µM [falling, single point]"

# Additional structures follow.

SMILES,AC50 [1],AC50 [2]
COc1cc2c(cc1NC(=O)CSc1nc3ccccc3[nH]1)oc1ccccc12,"15.8 µM [rising, single point]","22.4 µM [rising, single point]"
Fc1cccc(COc2ccccc2CNc2ccccc2)c1,–,"35.5 µM [rising, single point]"
CCCc1cc(N2CCCC(C(=O)Nc3ccc(OC)cc3OC)C2)n2ncnc2n1 (centres undefined),–,"35.5 µM [rising, single point]"
O=c1c(-c2ccc(O)cc2)coc2cc(OC3OC(CO)C(O)C(O)C3O)cc(O)c12 (centres undefined),–,"31.6 µM [rising, single point]"
COC(=O)C(NC(=O)c1c(C)nn(C)c1Cl)c1ccccc1 (centres undefined),"10 µM [falling, partial curve, poor fit]","0.0447 µM [falling, full curve, poor fit]"
FC(F)(F)c1nc(N2CCCC2)ncc1-c1nnnn1-c1ccc(Cl)cc1,"11.2 µM [rising, partial curve]","12.6 µM [rising, partial curve]"
CC(=O)c1ccc(N2C(=O)N(CC(=O)c3ccc(F)cc3)c3ccccc3S2(=O)=O)cc1,–,"6.31 µM [falling, single point]"
Cc1cccc(OCC(=O)N/N=C/c2cc([N+](=O)[O-])ccc2N2CCOCC2)c1,"3.16 µM [rising, full curve]","0.224 µM [rising, full curve, poor fit]"
Cc1cc(C)n(CC(=O)N2CCCC(C(=O)c3cccc(OC(C)C)c3)C2)n1 (centres undefined),"14.1 µM [falling, single point]","35.5 µM [falling, single point]"
CC(=O)Nc1ccccc1-c1nnn(CC(=O)Nc2ccc3c(c2)OCCO3)n1,"22.4 µM [falling, single point]",–
N#C/C(=C\c1cn[nH]c1-c1ccc(Cl)cc1)C(=O)NC1CC1,"11.2 µM [rising, partial curve, poor fit]","28.2 µM [rising, single point]"
C=C(C)CNC(=S)N/N=C\c1ccc2c(c1)OCO2,"0.01 µM [rising, full curve, poor fit]","0.00708 µM [rising, full curve, poor fit]"
O=C(Nc1ncc2c(n1)-c1ccccc1CC2)c1cccc(Cl)c1,"35.5 µM [falling, single point]","35.5 µM [falling, single point]"
Cc1cc(C)cc(NS(=O)(=O)c2ccc3c(c2)c(=O)n(C)c(=O)n3C)c1,–,"7.94 µM [rising, partial curve]"
CCC(Sc1nc2ccccc2c(=O)n1CCc1ccc(OC)c(OC)c1)C(=O)N(CC)CC (centres undefined),"14.1 µM [falling, single point]",–
CCCN(C(=O)Cn1cnc2onc(-c3ccc(F)cc3)c2c1=O)c1cccc(Cl)c1,"10 µM [falling, partial curve, poor fit]",–
CCc1cccc(C)c1NC(=S)NCc1ccc2c(c1)cc(C)n2C,"14.1 µM [rising, single point]","22.4 µM [rising, single point]"
Cc1cccc(CNC(=O)CS(=O)(=O)c2cccc3nsnc23)c1,–,"7.08 µM [rising, partial curve, poor fit]"
